# Results published in the supplement of paper PMC10338343.
# ± gives the standard deviation. This is a selection; strong and weak results do not stand in their true shares. Many entries were measured with a wide error. This is one part of the list.
# Tested on: MILI (PIWIL2) piRISC loaded with L1MC piRNA (26 nt)
# Experiment: pre-steady-state target cleavage rate (min^-1); higher = faster piRNA-guided slicing of the target
# Conditions: guide: L1MC piRNA 5'p-UAACUAAAUACUAUGCAAGCUGUAGG; auxiliary factor: none (no GTSF1)
# How it was run: (§1)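 The pre-steady-state cleavage rate came from a burst-and-steady-state fit to pooled data from three Cleave-'n-Seq trials, in which uncleaved targets were sequenced and normalised to depth and to weakly complementary targets. Each reaction held 0.1 nM transcribed, DNA-blocked target RNA library and 1 nM active affinity-purified piRISC carrying one synthetic guide, with or without 500 nM GTSF1 partner protein, in HEPES–potassium acetate buffer at 33 °C for 0–8 or 0–960 min. k3 was capped at 0.0001 min^-1.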
row,Sequence,pre-steady-state target cleavage rate
1,UCCUGGAACAGCUUGCAUUGUAUUUAGAUA,0.00241 ± 0.0029
2,UCCUGGAUCUGCUUGCAUAGUAUUUAGAUA,0.00202 ± 0.0034
3,UCCUGGUACAGCUUGCAUAGUAUAUACUUA,0.00128 ± 0.0064
4,UCCUCCUACAGCUUGCAUAGAAUUUAGUAA,0.00132 ± 0.0036
5,UCCUGGUACAGCUUGCAUACUAUUUAGAUA,0.00162 ± 0.0057
6,UCCUGGUACAGCUUGCAUAGUAAUUUGUUA,0.00207 ± 0.004
7,UCCUGGAUGUGCUUGCAUAGUUUUUUGUUA,0.00118 ± 0.0082
8,UCCUGGAUGUGCUUGCAUAGUAUGUAGUUA,0.00322 ± 0.0035
9,UCCUGGAUCAGCUUGCAUAGUAUUGAGUUA,0.00267 ± 0.0035
10,UCCUGGAUGAGCUUGCAUUGUAUUUUGUUA,0.00276 ± 0.0035
11,UCCUGGAACAGCUUGCAUAGUAUUUAGAUA,0.00197 ± 0.0031
12,UCCUGGUACAGCUUGCAAAGUAUUUAGAAA,0.00103 ± 0.0056
13,UCCUGGAUGACCUUGCAUAGUAAUUAGUUA,0.00314 ± 0.0032
14,UCCUGCUACAGCUAGCAUAGUAUUUUGUUA,0.00312 ± 0.0039
15,UCCUGGAACAGCUUGCAUUGUAUUAAGUUA,0.00186 ± 0.0032

# Tested on: EfPiwi piRISC loaded with L1MC piRNA (26 nt)
# Experiment: pre-steady-state target cleavage rate (min^-1); guide: L1MC piRNA 5'p-UAACUAAAUACUAUGCAAGCUGUAGG; MIWI and MILI are mouse PIWI proteins and EfPiwi is from a freshwater sponge; tags in brackets are library labels; higher = faster piRNA-guided slicing of the target
# Conditions: auxiliary factor: 500 nM Ephydatia muelleri Gtsf1
# How it was run: as §1
row,Sequence,pre-steady-state target cleavage rate
1,UCCUGCUACAGGUUGCAAAGUAUUUAGUUA,0.0385 ± 0.0096
2,UCCUGGUACGCUUGCAUAGUAUUUAGUUA,0.00582 ± 0.0027
3,UCCUGGAACUGCUUGCAUUGUAUUUAGUUA,0.00574 ± 0.0019
4,UCCUGGAAGAGCUUGCAUAGUAUUUAGUUA,0.0725 ± 0.016
5,UCCUGGAACAGCUUGCAUUGUAUUUAGAUA,0.00313 ± 0.0017
6,UCCUCCAACAGCAUGCAUAGUAUUUAGUUA,0.0161 ± 0.0047
7,UCCUGGAUCUGCUUGCAUAGUAUUUAGAUA,0.00401 ± 0.0022
8,UCCUGGAUCAGCUUGCAAACUAUUUAGUUA,0.00476 ± 0.003
9,UCCUGGUACAGCUUGCAUAGUAUAUACUUA,0.000904 ± 0.0044
10,UCCUCCUACAGCUUGCAUAGAAUUUAGUAA,0.00443 ± 0.0022
11,UCCUGGUACACCUUGCAAAGUAUUUAGUUA,0.00239 ± 0.0034
12,UCCUGGAUGAGCUUGCAUUGUAUUUACUUA,0.000743 ± 0.0058
13,UCCUGGAACAGCUAGCAAAGUAUUUAGUUA,0.00366 ± 0.0025
14,UCCUGGUACAGCUUGCAUACUAUUUAGAUA,0.00109 ± 0.0069
15,UCCUGGAUGAGCUUGCAUACUAUUUAGUUA,0.00682 ± 0.0019
16,UCCUGGUACAGCUUGCAUAGUAAUUUGUUA,0.00282 ± 0.0025
17,UCCUGGAUGUGCUUGCAUAGUUUUUUGUUA,0.000902 ± 0.0061
18,UCCUGGAUGUGCUUGCAUAGUAUGUAGUUA,0.00399 ± 0.0022
19,UCCUGGAUGUGCUUGCAUAGUAUUUAGUGUA,0.00208 ± 0.0039
20,UCCUGGAUCAGCUUGCAUUGUAUUUAGUUA,0.0179 ± 0.0038

row,Sequence,pre-steady-state target cleavage rate
1,UCCUGGAUGUGCUUGCAUUGUAUAUAGUUA,0.000418 ± 0.0081
2,UCCUGGAUGAGCUUGCAUACUAUUUAGAAA,0.00478 ± 0.0029
3,UCCUGGAUCAGCUUGCAUAGUAUUGAGUUA,0.00662 ± 0.0024
4,UCCUGGAAGAGCUUGCUUAGUAUUUAGUUA,0.0135 ± 0.0043
5,UCCUCCUACAGCUUGCAUAGUGAUUUAGUUA,0.00415 ± 0.0025
6,UCCUGGAUGUCGAUGCAUAGUAUUUACGUUA,0.000487 ± 0.008
7,UCCUGGAUGAGCUUGCAUAGUCUUUAGUUA,0.0107 ± 0.0033
8,UCCUGGAUCUGCUUGCAUAGUAUUAAGUUA,0.00735 ± 0.0037
9,UCCUGGAACACGCUUGCAUAGUAUUUAGUUA,0.0331 ± 0.011
10,UCCUGGAACAGCUUGCAAAGUAUUAAGUUA,0.00406 ± 0.003
11,UCCUGGAUGAGCUUGCAUUGUAUUUUGUUA,0.00107 ± 0.0048
12,UCCUGGAACAGCUUGCAUAGUAUUUAGAUA,0.00437 ± 0.0016
13,UCCUGGAUGAGCUAGCUUAGUAUUUAGUUA,0.00129 ± 0.003
14,UCCUGGAACAGCUUGGAUAGUAUUAAGUUA,0.00405 ± 0.0034
15,UCCUGGUACAGCUUGCAAAGUAUUUAGAAA,0.00656 ± 0.0038
16,UCCUGGAUGACCUUGCAUAGUAAUUAGUUA,0.00204 ± 0.0029
17,UCCUGGAUCAGCUUGGAUAGUAAUUAGUUA,0.00256 ± 0.0025
18,UCCUGCUACAGCUAGCAUAGUAUUUUGUUA,0.0057 ± 0.0021
19,UCCUGGAACAGCUUGCAUUGUAUUAAGUUA,0.00239 ± 0.0026
20,UCCUGGAUGUGCUUGCAUACUAUUUAGUUA,0.0112 ± 0.0036
